The source of these data is article PMC12548473, “Solution structure of the C-terminal domain of the measles virus V protein in its free form and mechanistic analysis of STAT2 targeting” (Journal of Virology, 2025).

Protein sequences, listed by entry. Tags and fused reporters are not part of them. Lines headed by an entry give the natural chain unless they say otherwise; changes in a name come on top.
UniProt Q00978: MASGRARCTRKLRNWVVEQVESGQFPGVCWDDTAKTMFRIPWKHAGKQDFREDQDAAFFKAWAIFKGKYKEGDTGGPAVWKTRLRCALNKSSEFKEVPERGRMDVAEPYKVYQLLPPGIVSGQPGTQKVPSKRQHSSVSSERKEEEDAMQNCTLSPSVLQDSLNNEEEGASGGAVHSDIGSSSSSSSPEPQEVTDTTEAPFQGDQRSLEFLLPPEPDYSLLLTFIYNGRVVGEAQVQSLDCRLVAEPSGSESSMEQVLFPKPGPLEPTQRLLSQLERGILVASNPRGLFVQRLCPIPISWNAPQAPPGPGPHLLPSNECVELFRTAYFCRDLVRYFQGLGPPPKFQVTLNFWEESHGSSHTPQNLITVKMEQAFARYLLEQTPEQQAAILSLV

The target of the experiment is T1, MeV-V_(CT221-299) (measles virus V protein, residues 221-299, containing the C-terminal domain) (measles virus (strain Ichinose-B95a)) (UniProt P0C774).
T1 sequence: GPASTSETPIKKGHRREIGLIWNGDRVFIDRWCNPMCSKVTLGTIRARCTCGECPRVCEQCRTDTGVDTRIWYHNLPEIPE
The experiment can be described thus: NMR titration; SOFAST 1H-15N HMQC of 20 µM 15N-MeV-V_(CT221-299); unlabelled partner added (STAT2-core 7.5, 10, 12.5, 20 µM; IRF9-IAD 20 µM); loss of signal intensity read out; 20°C; both purified.

No constants are given. Whether binding was seen depends on the method and setting. A result given as binding can be weak or reduced; the word gives no strength.

Take “IRF9-IRF-associated domain (IRF9-IAD) (from UniProt Q00978) (domain or fragment)”: the binding entry is on record as “binds weakly”.
